Data taken from publication PMC10940091.
No constants are given. Whether binding was seen depends on the method and setting. Binding seen in cells or lysates may run through a third protein. Some binding calls cover weakened binding; strength is not graded here.

Target: T1, Zinc finger MYND-type containing 8 (ZMYND8), endogenous (human (endogenous in MDA-MB-231 and MCF-7)) (UniProt Q9ULU4)
T1 sequence: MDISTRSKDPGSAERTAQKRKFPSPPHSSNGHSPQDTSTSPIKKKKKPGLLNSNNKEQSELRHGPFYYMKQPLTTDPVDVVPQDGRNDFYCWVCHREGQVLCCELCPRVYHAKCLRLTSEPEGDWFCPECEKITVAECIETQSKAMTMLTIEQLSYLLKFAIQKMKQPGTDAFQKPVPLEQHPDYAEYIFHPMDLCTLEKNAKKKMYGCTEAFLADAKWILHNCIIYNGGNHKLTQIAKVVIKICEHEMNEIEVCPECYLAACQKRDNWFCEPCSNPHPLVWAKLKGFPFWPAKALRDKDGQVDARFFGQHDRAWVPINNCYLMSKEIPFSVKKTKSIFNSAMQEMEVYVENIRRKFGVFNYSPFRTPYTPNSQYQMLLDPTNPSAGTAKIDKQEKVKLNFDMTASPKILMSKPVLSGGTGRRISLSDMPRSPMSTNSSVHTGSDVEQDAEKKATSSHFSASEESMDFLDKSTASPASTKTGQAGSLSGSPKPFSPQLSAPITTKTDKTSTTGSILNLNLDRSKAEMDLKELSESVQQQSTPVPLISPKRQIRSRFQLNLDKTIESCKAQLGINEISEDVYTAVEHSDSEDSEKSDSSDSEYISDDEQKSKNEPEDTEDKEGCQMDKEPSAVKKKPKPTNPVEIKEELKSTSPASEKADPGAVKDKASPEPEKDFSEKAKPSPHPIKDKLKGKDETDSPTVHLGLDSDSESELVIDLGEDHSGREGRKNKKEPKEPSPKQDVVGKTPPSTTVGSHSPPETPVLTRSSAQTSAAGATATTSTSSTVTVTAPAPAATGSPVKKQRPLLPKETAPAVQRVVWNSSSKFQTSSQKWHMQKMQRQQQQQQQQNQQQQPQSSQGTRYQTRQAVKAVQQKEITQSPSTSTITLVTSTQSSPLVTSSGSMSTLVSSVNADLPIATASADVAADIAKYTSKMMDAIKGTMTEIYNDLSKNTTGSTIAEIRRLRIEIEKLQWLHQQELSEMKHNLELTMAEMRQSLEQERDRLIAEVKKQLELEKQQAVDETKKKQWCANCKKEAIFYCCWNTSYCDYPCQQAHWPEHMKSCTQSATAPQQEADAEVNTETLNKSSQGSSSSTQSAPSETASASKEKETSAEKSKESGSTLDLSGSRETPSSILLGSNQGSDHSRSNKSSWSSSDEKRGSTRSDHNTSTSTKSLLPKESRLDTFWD
Assay: co-IP; endogenous proteins in lysates of MDA-MB-231 and MCF-7 mammospheres; NETN lysis buffer (150 mM NaCl, 1 mM EDTA, 10 mM Tris-HCl pH 8.0, 0.5% Igepal); IP overnight at 4°C with anti-ZMYND8 or anti-NRF2 antibody or control IgG, protein A/G magnetic beads; immunoblot

B1: Nuclear factor erythroid 2-related factor 2 (NRF2), endogenous (protein, UniProt Q16236 1-605)
chain: MMDLELPPPGLPSQQDMDLIDILWRQDIDLGVSREVFDFSQRRKEYELEKQKKLEKERQEQLQKEQEKAFFAQLQLDEETGEFLPIQPAQHIQSETSGSANYSQVAHIPKSDALYFDDCMQLLAQTFPFVDDNEVSSATFQSLVPDIPGHIESPVFIATNQAQSPETSVAQVAPVDLDGMQQDIEQVWEELLSIPELQCLNIENDKLVETTMVPSPEAKLTEVDNYHFYSSIPSMEKEVGNCSPHFLNAFEDSFSSILSTEDPNQLTVNSLNSDATVNTDFGDEFYSAFIAEPSISNSMPSPATLSHSLSELLNGPIDVSDLSLCKAFNQNHPESTAEFNDSDSGISLNTSPSVASPEHSVESSSYGDTLLGLSDSEVEELDSAPGSVKQNGPKTPVHSSGDMVQPLSPSQGQSTHVHDAQCENTPEKELPVSPGHRKTPFTKDKHSSRLEAHLTRDELRAKALHIPFPVEKIINLPVVDFNEMMSKEQFNEAQLALIRDIRRRGKNKVAAQNCRKRKLENIVELEQDLDHLKDEKEKLLKEKGENDKSLHLLKKQLSTLYLEVFSMLRDEDGKPYSPSEYSLQQTRDGNVFLVPKSKKPDVKKN
binding: binds
